Assay results published in the supplement of paper PMC11451515.

Experiments:
Details in all cases: 48 h
[1] = test system: NOMO1; assay: cell viability relative to DMSO control; higher = less cytotoxic
How it was run: (§1)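 Viability values are per-plate percentages of DMSO wells, with background from cell-free wells. Library compounds in DMSO were pin-dosed, in an 11-point threefold series from 47 μM to 0.79 nM, onto NOMO1 or SEM (500 cells/well) or P12-Ichikawa (1000 cells/well) leukemia cells in 1536-well plates (5 μl). Those cells had been adapted for at least four passages in each medium, and CellTiter-Glo One luminescence was read after 48 h at 37°C.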

[2] = test system: P12-Ichikawa; assay: as above
How it was run: as §1

[3] = test system: SEM cells; assay: as above
How it was run: as §1

[4] = test system: NOMO1; assay: AUC of viability dose-response curve (% viability x log10 dose units); higher = less sensitive
How it was run: (§2)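 Leukemia cells adapted to each medium were seeded at 500 or 1000 cells/well in 1536-well plates and dosed with library compounds in DMSO at 11 threefold doses from 47 μM to 0.79 nM for 48 h at 37°C. CellTiter-Glo One luminescence was normalised per plate to DMSO and cell-free wells, then fitted with a four-parameter log-logistic model over log10 doses. Area under the curve was taken from this fit by the trapezoidal rule, with curves above full viability scaled and curves failing quality control removed.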

[5] = test system: P12-Ichikawa; assay: as above
How it was run: as §2

[6] = test system: SEM cells; assay: as above
How it was run: as §2

COC(=O)[C@H](CCCNC(=N)N)N[S+](=O)([O-])c1ccc(C)cc1
cell viability [%]
Details	[1]	[2]	[3]
HPLM + 10% dialyzed FBS, 0.000781 µM	83.3	90.4	79.7
HPLM + 10% dialyzed FBS, 0.00234 µM	92.7	100	88.2
HPLM + 10% dialyzed FBS, 0.00702 µM	108	96.6	82.6
HPLM + 10% dialyzed FBS, 0.0211 µM	107	101	89.9
HPLM + 10% dialyzed FBS, 0.0632 µM	96.8	101	90.2
HPLM + 10% dialyzed FBS, 0.19 µM	122	102	106
HPLM + 10% dialyzed FBS, 0.569 µM	109	102	108
HPLM + 10% dialyzed FBS, 1.71 µM	105	99.7	101
HPLM + 10% dialyzed FBS, 5.12 µM	92.3	110	101
HPLM + 10% dialyzed FBS, 15.4 µM	58.3	83.2	28.9
HPLM + 10% dialyzed FBS, 46.1 µM	66.1	86.5	48.1
RPMI 5 mM glucose + 10% FBS, 0.000781 µM	84.4	100	96.4
RPMI 5 mM glucose + 10% FBS, 0.00234 µM	89.4	65	92.8
RPMI 5 mM glucose + 10% FBS, 0.00702 µM	96.5	94.9	98.1
RPMI 5 mM glucose + 10% FBS, 0.0211 µM	88.5	96.9	100
RPMI 5 mM glucose + 10% FBS, 0.0632 µM	113	91.8	100
RPMI 5 mM glucose + 10% FBS, 0.19 µM	111	98.1	89.5
RPMI 5 mM glucose + 10% FBS, 0.569 µM	96.3	106	110
RPMI 5 mM glucose + 10% FBS, 1.71 µM	90.7	102	89.2
RPMI 5 mM glucose + 10% FBS, 5.12 µM	92.7	102	103
RPMI 5 mM glucose + 10% FBS, 15.4 µM	77.6	77.6	35.8
RPMI 5 mM glucose + 10% FBS, 46.1 µM	79.5	83.7	36.9
RPMI 5 mM glucose + 10% dialyzed FBS, 0.000781 µM	77	87.1	81
RPMI 5 mM glucose + 10% dialyzed FBS, 0.00234 µM	84.8	89.2	71.3
RPMI 5 mM glucose + 10% dialyzed FBS, 0.00702 µM	94	102	80.3
RPMI 5 mM glucose + 10% dialyzed FBS, 0.0211 µM	97.5	95.7	87.4
RPMI 5 mM glucose + 10% dialyzed FBS, 0.0632 µM	96.2	101	93.2
RPMI 5 mM glucose + 10% dialyzed FBS, 0.19 µM	87.9	97.1	99.2
RPMI 5 mM glucose + 10% dialyzed FBS, 0.569 µM	99.6	100	99.9
RPMI 5 mM glucose + 10% dialyzed FBS, 1.71 µM	90.7	93.8	92.7
RPMI 5 mM glucose + 10% dialyzed FBS, 5.12 µM	95.7	99.7	96.2
RPMI 5 mM glucose + 10% dialyzed FBS, 15.4 µM	68.2	71.4	30.5
RPMI 5 mM glucose + 10% dialyzed FBS, 46.1 µM	86.5	81.6	34.1

AUC of viability dose-response curve
Details	[4]	[5]	[6]
HPLM + 10% dialyzed FBS	444	466	409
RPMI 5 mM glucose + 10% FBS	444	444	422
RPMI 5 mM glucose + 10% dialyzed FBS	426	445	384
